# Test results as given in the supplement of paper PMC7666118.
# The chains behind the UniProt entries cited, without tags or fusion partners. Where a name states a change or a piece, a line headed by the entry shows the natural chain unless it says otherwise.
# UniProt Q9NWH9: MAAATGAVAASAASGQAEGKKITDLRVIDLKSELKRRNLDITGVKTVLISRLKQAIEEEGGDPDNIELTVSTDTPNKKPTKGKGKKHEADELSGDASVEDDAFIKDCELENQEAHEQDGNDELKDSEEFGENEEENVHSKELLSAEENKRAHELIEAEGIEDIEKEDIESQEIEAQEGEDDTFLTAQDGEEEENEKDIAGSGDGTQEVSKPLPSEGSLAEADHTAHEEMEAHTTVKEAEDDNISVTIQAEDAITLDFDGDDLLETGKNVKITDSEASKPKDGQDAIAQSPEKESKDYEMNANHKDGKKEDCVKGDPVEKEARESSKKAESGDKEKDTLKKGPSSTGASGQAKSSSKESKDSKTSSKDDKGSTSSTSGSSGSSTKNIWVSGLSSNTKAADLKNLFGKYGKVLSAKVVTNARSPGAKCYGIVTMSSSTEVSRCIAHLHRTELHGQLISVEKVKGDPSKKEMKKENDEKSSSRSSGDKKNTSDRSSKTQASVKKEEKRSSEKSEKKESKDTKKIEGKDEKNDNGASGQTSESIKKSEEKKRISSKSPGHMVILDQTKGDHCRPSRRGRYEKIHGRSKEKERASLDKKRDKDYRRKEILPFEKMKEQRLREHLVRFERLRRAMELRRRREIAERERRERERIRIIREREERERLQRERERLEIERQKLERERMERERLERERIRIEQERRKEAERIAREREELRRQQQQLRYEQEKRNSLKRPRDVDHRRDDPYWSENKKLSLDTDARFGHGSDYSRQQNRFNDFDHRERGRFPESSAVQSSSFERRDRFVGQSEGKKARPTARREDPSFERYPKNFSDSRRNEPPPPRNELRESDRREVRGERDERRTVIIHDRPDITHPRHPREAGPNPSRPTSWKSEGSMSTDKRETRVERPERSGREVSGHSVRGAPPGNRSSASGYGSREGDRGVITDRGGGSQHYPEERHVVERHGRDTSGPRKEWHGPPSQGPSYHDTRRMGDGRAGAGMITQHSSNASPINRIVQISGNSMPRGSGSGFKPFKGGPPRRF
# The list shows a part of the results.
# What was measured:
# SLTM = SLTM (UniProt Q9NWH9); test: dose-dependent thermal stabilisation call (2D-TPP, DLPTP, 10% FDR) (binary (1 = stabilised)); higher = stabilised by the compound; settings: system: HL-60 intact cells; concentration range 0.04-10 µM
# STX2 = target: T1, STX2 (UniProt P32856); test: as above; settings: system: HL-60 intact cells; concentration range 0.04-10 µM
# T1 sequence (whole entry): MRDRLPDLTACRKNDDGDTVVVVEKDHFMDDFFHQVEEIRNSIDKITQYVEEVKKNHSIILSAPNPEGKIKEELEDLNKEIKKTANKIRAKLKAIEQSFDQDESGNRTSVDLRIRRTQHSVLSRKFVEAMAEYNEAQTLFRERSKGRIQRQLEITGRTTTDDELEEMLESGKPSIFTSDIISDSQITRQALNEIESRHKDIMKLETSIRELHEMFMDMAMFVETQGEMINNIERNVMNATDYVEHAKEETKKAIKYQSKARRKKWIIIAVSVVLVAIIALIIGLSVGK
smiles,measurement,setting,value
COc1ccc(Cn2ccc3ccc(C(=O)NO)cc32)cc1,dose-dependent thermal stabilisation call,SLTM,inactive: 0
same,dose-dependent thermal stabilisation call,STX2,inactive: 0
